# Reference: PubChem BioAssay AID504793 (Drosophila RNAi Screening Center, 2011)
# Assay: 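Knock-downs allowing continued mitosis even though DNA is damaged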 (primary screen)
# Cell system: Drosophila S2R+ cells
# Reagents: long dsRNA against Drosophila genes, about 0.25 µg dsRNA per well
# Duration: 4 days of dsRNA, then 4 hours of drug before read-out
# Treatment: doxorubicin 0.5 µM for 4 hours to cause double-strand breaks, in cells also given a low, harmless dose of dsRNA against nbs to sensitise the assay
# Measurement: 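Per-well count of mitotic cells stained for phospho-histone H3 after doxorubicin exposure, used as mitotic index; counts are raw and not normalised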
# Direction: mitotic cells: higher = more cells in mitosis, weaker G2 arrest
# Hit rule: 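a call needs confirmation in secondary tests, with other dsRNAs and a check of mitotic timing without damage, not just a high primary count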
# Calls: active = confirmed in follow-up tests; inactive = not confirmed
# The deposit covers about 23,000 reagents; shown is a random part of those that have a named target and a result. Over the whole deposit, 62 (0.27%) got an active call. 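Calls come from follow-up tests whose scores are not deposited, so confirmed genes may have low counts here; counts are not normalised per plate.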 Raw values are not corrected between plates. Entries without a mark were called inactive. Names joined by + are all predicted targets of the reagent. No sequences are given here.
gene,dsRNA,"mitotic cells, replicate 1","mitotic cells, replicate 2"
CG14005,DRSC02337,5,
RpL32,DRSC16835,6,10
RpL32,DRSC27164,13,
dsx-c73A,DRSC09435,9,
dsx-c73A,DRSC09914,5,
dsx-c73A,DRSC10429,3,
CG7715,DRSC16301,10,
CG34434,DRSC18134,6,
CG34434,DRSC26923,6,
CG34434,DRSC28486,5,
CG32121,DRSC09265,14,
Pgam5-2,DRSC04278,2,
Hnf4,DRSC03344,7,
Hnf4,DRSC26864,5,
CG13540,DRSC04182,6,
Idgf5,DRSC06919,5,
Idgf5,DRSC26392,13,
mRpS21,DRSC12965,8,
mRpS21,DRSC21357,11,
mRpS21,DRSC29842,7,
TFAM,DRSC15552,6,
TFAM,DRSC26903,5,
CG9875,DRSC04585,3,
nAChRalpha2,DRSC17009,7,
nAChRalpha2,DRSC24487,5,
CG12057,DRSC17797,15,
Nrg,DRSC17573,5,
Nrg,DRSC18688,4,
Nrg,DRSC27797,5,
CG42586 + CG31775,DRSC01413,9,
CG11986,DRSC14461,3,
CG11986,DRSC24504,5,
Pde9,DRSC19746,10,
Pde9,DRSC19874,13,
Pde9,DRSC19875,19,
Pde9,DRSC19876,9,
Pde9,DRSC25304,9,
Prp40,DRSC00612,5,
Taf7,DRSC15445,4,
Taf7,DRSC26720,7,
Rpn12R,DRSC09842,9,
CG13315,DRSC09986,4,
fd102C,DRSC17203,8,
fd102C,DRSC26567,6,
Cyp6d5,DRSC16634,7,
Cyp6d5,DRSC29717,13,
CG8292,DRSC03082,4,
CG10257,DRSC05985,9,
Prosalpha4T1,DRSC16800,11,
Prosalpha4T1,DRSC28895,8,
MetRS-m,DRSC16443,10,
MetRS-m,DRSC16515,9,
Spn43Ab,DRSC06781,3,
Spn43Ab,DRSC28317,5,
CG16734,DRSC15143,5,
dpr13,DRSC06160,7,
dpr13,DRSC06464,6,
dpr13,DRSC24196,6,
CG33341,DRSC22887,16,
CG33341,DRSC24893,7,
Strip,DRSC08194,9,
Strip,DRSC29471,5,

13 entries from above, showing only “mitotic cells, replicate 1”.
Pgam5-2 [DRSC04278]: 2
Hnf4 [DRSC03344]: 7
Hnf4 [DRSC26864]: 5
CG13540 [DRSC04182]: 6
Idgf5 [DRSC06919]: 5
Idgf5 [DRSC26392]: 13
mRpS21 [DRSC12965]: 8
mRpS21 [DRSC21357]: 11
mRpS21 [DRSC29842]: 7
TFAM [DRSC15552]: 6
TFAM [DRSC26903]: 5
CG9875 [DRSC04585]: 3
nAChRalpha2 [DRSC17009]: 7

More reagents follow:
gene,dsRNA,"mitotic cells, replicate 1","mitotic cells, replicate 2"
CG11127,DRSC06043,7,
CG14260,DRSC14755,4,
CG5282,DRSC11775,4,
CG14984,DRSC08442,5,
CG14984,DRSC27683,4,
chm,DRSC03341,9,
chm,DRSC24941,3,
CG10339,DRSC04065,5,
CG13609,DRSC14612,11,
CG13609,DRSC22843,7,
CG1299,DRSC08300,8,
Sr-CIII,DRSC22262,9,
orb,DRSC23148,15,
CR11235,DRSC20480,3,
CR11235,DRSC28870,6,
CR31032,DRSC22457,6,
CR31032,DRSC25512,4,
ssp5,DRSC14955,11,
Epac,DRSC04969,11,
Epac,DRSC04996,11,
Epac,DRSC04997,5,
Roe1,DRSC07534,6,
Roe1,DRSC26435,13,
Nepl21,DRSC14133,3,
mute,DRSC06562,7,
mute,DRSC22931,16,
mute,DRSC29848,15,
CG14562,DRSC11723,6,
CG13427,DRSC06389,6,
PK2-R2,DRSC16448,5,
PK2-R2,DRSC25536,8,
IntS3,DRSC21215,11,
CG7362,DRSC16236,10,
CG7362,DRSC29548,6,
PIG-A,DRSC06982,3,
CG5783,DRSC02894,6,
RabGGTb,DRSC00804,7,
RabGGTb,DRSC29549,8,
Rgl,DRSC11267,8,
Cluap1,DRSC20637,11,
Cluap1,DRSC23735,19,
U2af38,DRSC00796,1,
U2af38,DRSC28068,4,
mRpS10,DRSC15557,7,
Mdh1 (retired record),DRSC02846,7,
sug,DRSC06855,7,
sug,DRSC29599,3,
Rap1,DRSC08686,6,
Rap1,DRSC25388,4,
